Results are given in words; binding and its absence hold for the method and conditions named. For some assays here: In cells and extracts the contact can be indirect. Some binding calls cover weakened binding; strength is not graded here. Sequences can lack the tags named with a protein.
How the values were obtained:
[1] = biological target: AtRAF2 (Arabidopsis Rubisco assembly factor 2), GAL4 yeast two-hybrid fusions (AD–AtRAF2; BD fusion) (Arabidopsis) (UniProt Q9LU63); assay: two-hybrid; directed GAL4 yeast two-hybrid (Matchmaker System 3), yeast mating, BD and AD fusions, growth on SD/−WL and SD/−AHLW, 30 °C
[2] = biological target: AtRAF2 BiFC fusions (pSPYNE–35S and pSPYCE–35S) (Arabidopsis) (UniProt Q9LU63); assay: split reporter; BiFC with halves of YFP (pSPYNE–35S, pSPYCE–35S) in agro-infiltrated N. benthamiana leaves, confocal microscopy

binding [1] | binding [2] | Binder
binds | – | AtRAF2 (Arabidopsis Rubisco assembly factor 2), GAL4 yeast two-hybrid fusions (AD–AtRAF2; BD fusion) (protein, UniProt Q9LU63 1-220) MAATSSSPPCNISASSLLLRQPSRSILKVFGLLPPVSRNNRKLGRLTVTRSNLAQDFLGDFGARDPYPEEIASQFGDKVLGCQSTEHKILIPNASVLSLSQLQCSPVSSSQPPLSGDDARTLLHKVLGWSIVDNEAGGLKIRCMWKVRDFGCGVELINRIHKVAEASGHYPSLHLESPTQVRAELFTSSIGGLSMNDFIMAAKIDDIKTSDLSPRKRAWA
– | binds | AtRAF2 BiFC fusions (pSPYNE–35S and pSPYCE–35S) (protein, UniProt Q9LU63 51-220) SNLAQDFLGDFGARDPYPEEIASQFGDKVLGCQSTEHKILIPNASVLSLSQLQCSPVSSSQPPLSGDDARTLLHKVLGWSIVDNEAGGLKIRCMWKVRDFGCGVELINRIHKVAEASGHYPSLHLESPTQVRAELFTSSIGGLSMNDFIMAAKIDDIKTSDLSPRKRAWA
